Test results from US6541450B1, “Parathyroid hormone analogues for the treatment of osteoporosis” (National Research Council of Canada, priority 1994, dated 2003).
Some results were stated once for a whole list of compounds, not compound by compound.

System: anesthetized female Sprague-Dawley rats
Assay: Hypotensive effect, tail artery pressure in anaesthetized rats

hPTH-(1-84) [reference compound]
reduction of tail artery pressure (injection into a femoral vein): 42.4-67.1%
time to reduction of tail artery pressure (subcutaneous injection): 2 to 19 min
